In patent US20200031906A1:
Results are given in words; binding and its absence hold for the method and conditions named. Binding seen in cells or lysates may run through a third protein. Some entries that bind do so weakly or less than the wild type.

By UniProt entry, the sequences of proteins in these tests, tags left out. Where a name states a change or a piece, a line headed by the entry shows the natural chain unless it says otherwise.
UniProt P07478: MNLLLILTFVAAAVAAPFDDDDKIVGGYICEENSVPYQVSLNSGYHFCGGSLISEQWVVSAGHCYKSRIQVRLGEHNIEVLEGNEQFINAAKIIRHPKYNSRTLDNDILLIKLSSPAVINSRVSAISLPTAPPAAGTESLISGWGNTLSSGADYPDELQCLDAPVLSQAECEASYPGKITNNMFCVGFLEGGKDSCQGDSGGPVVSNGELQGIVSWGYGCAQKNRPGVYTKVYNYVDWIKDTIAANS

What was measured:
[1] = biological target: T1, prosaposin (PSAP) (UniProt P07602); assay: co-immunoprecipitation of LRP1 peptides with PSAP
T1 sequence (looked up): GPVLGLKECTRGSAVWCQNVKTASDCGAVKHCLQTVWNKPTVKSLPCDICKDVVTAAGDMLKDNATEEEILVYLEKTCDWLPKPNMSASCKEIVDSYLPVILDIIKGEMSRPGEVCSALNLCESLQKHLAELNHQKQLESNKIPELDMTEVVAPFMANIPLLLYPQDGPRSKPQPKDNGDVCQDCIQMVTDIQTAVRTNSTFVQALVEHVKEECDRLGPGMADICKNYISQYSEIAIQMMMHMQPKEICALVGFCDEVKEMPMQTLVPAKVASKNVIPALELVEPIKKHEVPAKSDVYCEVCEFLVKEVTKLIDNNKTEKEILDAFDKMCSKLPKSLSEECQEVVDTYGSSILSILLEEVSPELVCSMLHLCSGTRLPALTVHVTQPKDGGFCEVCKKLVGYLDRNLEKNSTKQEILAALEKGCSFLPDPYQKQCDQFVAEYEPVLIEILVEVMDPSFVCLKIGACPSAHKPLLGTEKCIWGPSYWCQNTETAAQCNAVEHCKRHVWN

[2] = biological target: Protease, serine 2 (PRSS2) (Homo sapiens (Human)) (UniProt P07478); assay: co-immunoprecipitation of LRP1 peptides with PRSS2
[3] = biological target: Protease, serine 2 (PRSS2) (Homo sapiens (Human)) (UniProt P07478); assay: co-immunoprecipitation (annotation in the peptide table)
[4] = biological target: T1, prosaposin (PSAP); assay: as above

Measured: binding

FICGCVEGYLLQPDNRSCKAKN [Peptide 13 (amino acids 151-172 of LRP1)]
binds: all assays above

YGTCSQLCTNTDGSFICGCVEGYLL [Peptide 12 (amino acids 140-164 of LRP1)]
binds: all assays above
